{"source": "PubChem BioAssay AID1259254 – NCATS – 2017", "screen": "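Gene knock-downs that lead to re-replication, shown by excess G2 DNA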 (primary screen)", "system": "human HCT116 colorectal cancer cells", "reagents": "single siRNA against human genes", "time to read-out": "3 days", "measured": "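Nuclei stained with Hoechst and imaged; cell-cycle phase assigned by DNA content; G2 share scaled per plate, non-targeting siRNA 0%, GMNN siRNA 100%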", "direction": "G2 robust z-score: higher = more G2 cells, more excess DNA replication", "rule for the call": "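Active siRNAs have a G2 robust z of 5 or more median absolute deviations over the median, which in these data means about 38% or higher of GMNN control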", "note": "This is one part, drawn at random, of about 59,000 reagents. In the full data, about 1,550 (2.6%) are marked active. 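G2 share is only a proxy for re-replication; each gene was hit by three separate siRNAs, and active genes were retested.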 A number with no mark means an inactive call. The numbers tell different reagents against one gene apart. Not all columns of the deposit are shown. No sequences are given here. Not given: the amount of reagent."}
{"gene knocked down": "H2BC12", "reagent": 1, "G2 robust z-score": -0.459}
{"gene knocked down": "H2BC12", "reagent": 2, "G2 robust z-score": -0.902}
{"gene knocked down": "H2BC12", "reagent": 3, "G2 robust z-score": -0.886}
{"gene knocked down": "DET1", "reagent": 1, "G2 robust z-score": 1.36}
{"gene knocked down": "DET1", "reagent": 2, "G2 robust z-score": 0.0413}
{"gene knocked down": "DET1", "reagent": 3, "G2 robust z-score": -0.675}
{"gene knocked down": "MAGEC1", "reagent": 1, "G2 robust z-score": 4.21}
{"gene knocked down": "MAGEC1", "reagent": 2, "G2 robust z-score": -0.306}
{"gene knocked down": "MAGEC1", "reagent": 3, "G2 robust z-score": -0.52}
{"gene knocked down": "ZNF491", "reagent": 1, "G2 robust z-score": 1.57}
{"gene knocked down": "ZNF491", "reagent": 2, "G2 robust z-score": 0.11}
{"gene knocked down": "ZNF491", "reagent": 3, "G2 robust z-score": -0.264}

Quoted from above, 2 entries:
{"gene knocked down": "ZNF491", "reagent": 2, "G2 robust z-score": 0.11}
{"gene knocked down": "ZNF491", "reagent": 3, "G2 robust z-score": -0.264}
